These are yes or no findings as the source states them, for the method shown. In cells and extracts the contact can be indirect. Some binding calls cover weakened binding; strength is not graded here.
Target: T1, Venus-XLG2 (EXTRA LARGE G-PROTEIN 2, wild type) (Arabidopsis thaliana) (UniProt C6KIE6)
T1 sequence: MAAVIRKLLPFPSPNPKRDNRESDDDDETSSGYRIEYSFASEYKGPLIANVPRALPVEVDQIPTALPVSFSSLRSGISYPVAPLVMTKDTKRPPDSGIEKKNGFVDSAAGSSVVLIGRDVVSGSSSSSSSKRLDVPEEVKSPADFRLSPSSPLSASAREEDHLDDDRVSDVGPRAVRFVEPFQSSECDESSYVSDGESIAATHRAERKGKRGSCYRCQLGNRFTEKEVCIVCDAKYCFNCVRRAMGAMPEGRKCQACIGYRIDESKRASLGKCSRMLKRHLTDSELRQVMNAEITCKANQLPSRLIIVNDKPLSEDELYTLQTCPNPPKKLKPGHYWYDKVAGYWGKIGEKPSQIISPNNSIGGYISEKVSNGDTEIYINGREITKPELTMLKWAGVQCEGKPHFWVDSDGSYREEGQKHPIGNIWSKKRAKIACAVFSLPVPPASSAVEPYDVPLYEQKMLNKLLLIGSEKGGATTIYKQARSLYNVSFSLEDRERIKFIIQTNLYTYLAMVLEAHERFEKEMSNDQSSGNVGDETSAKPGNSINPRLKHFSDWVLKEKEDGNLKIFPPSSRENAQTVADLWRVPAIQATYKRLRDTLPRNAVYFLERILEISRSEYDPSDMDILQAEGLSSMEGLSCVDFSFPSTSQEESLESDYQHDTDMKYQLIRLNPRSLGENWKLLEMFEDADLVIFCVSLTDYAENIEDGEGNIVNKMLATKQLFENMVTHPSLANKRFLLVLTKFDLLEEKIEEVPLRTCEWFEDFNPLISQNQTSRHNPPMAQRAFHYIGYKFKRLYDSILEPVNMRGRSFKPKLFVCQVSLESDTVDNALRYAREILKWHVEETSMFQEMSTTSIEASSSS
Assay: co-IP

B1: AGB1 (heterotrimeric G-protein beta subunit) (protein, UniProt P49177 1-377)
chain: MSVSELKERHAVATETVNNLRDQLRQRRLQLLDTDVARYSAAQGRTRVSFGATDLVCCRTLQGHTGKVYSLDWTPERNRIVSASQDGRLIVWNALTSQKTHAIKLPCAWVMTCAFSPNGQSVACGGLDSVCSIFSLSSTADKDGTVPVSRMLTGHRGYVSCCQYVPNEDAHLITSSGDQTCILWDVTTGLKTSVFGGEFQSGHTADVLSVSISGSNPNWFISGSCDSTARLWDTRAASRAVRTFHGHEGDVNTVKFFPDGYRFGTGSDDGTCRLYDIRTGHQLQVYQPHGDGENGPVTSIAFSVSGRLLFAGYASNNTCYVWDTLLGEVVLDLGLQQDSHRNRISCLGLSADGSALCTGSWDSNLKIWAFGGHRRVI
binding: binds

Reference: paper doi:10.1101/2021.10.08.463358
